# Results taken from the supplement of paper PMC8728848.
# Some of the results follow.
# B1: EULS2 M1 (Oryza sativa) (protein)
# chain: MVYCRANPNYAMTARNGAVVLAPANPKDEYQHWIKDMRWSTSIKDEEGYPAFALVNKATGQAIKHSLGQSHPVRLVPYNPEVMDESVLWTESRDVGNGFRCIRMVNNIYLNFDAFHGDKYHGGVRDGTDIVLWKLCEGDNQRWKIQPYYILEQKLISEEDLNSAVDHHHHHH
# Assays:
# Assay in all cases: glycan array binding signal (z-score within array); higher = stronger binding
# Conditions in all cases: glycan notation: IUPAC condensed, linker removed
# [1] = molecular target: Gal(a1-3)Gal(b1-3)GlcNAc
# Outline: (§1)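 Glycan array data came from 3228 arrays in the Consortium for Functional Glycomics database, and only arrays with an available protein sequence were kept. Glycan names were put into IUPAC-condensed notation, and columns mapping to the same glycan were averaged. The binding signal is a within-array Z-score, averaged across arrays of one protein sequence run at different concentrations or buffers and across linkers. A negative Z-score can be read as non-binding.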
# [2] = molecular target: Gal(a1-3)Gal(b1-3)GlcNAc(b1-2)Man
# Outline: as §1
# [3] = molecular target: Gal(a1-3)Gal(b1-3)GlcNAc(b1-2)Man(a1-3)[Gal(a1-3)Gal(b1-3)GlcNAc(b1-2)Man(a1-6)]Man(b1-4)GlcNAc(b1-4)GlcNAc
# Outline: as §1
# [4] = molecular target: Gal(a1-3)Gal(b1-3)GlcNAc(b1-3)GalNAc
# Outline: as §1
# [5] = molecular target: Gal(a1-3)Gal(b1-3)GlcNAc(b1-6)GalNAc
# Outline: as §1
# [6] = molecular target: Gal(a1-3)Gal(b1-3)[Fuc(a1-4)]GlcNAc(b1-2)Man(a1-3)[Gal(a1-3)Gal(b1-3)[Fuc(a1-4)]GlcNAc(b1-2)Man(a1-6)]Man(b1-4)GlcNAc(b1-4)GlcNAc
# Outline: as §1
# [7] = molecular target: Gal(a1-3)Gal(b1-4)Glc
# Outline: as §1
# [8] = molecular target: Gal(a1-3)Gal(b1-4)GlcNAc
# Outline: as §1
# [9] = molecular target: Gal(a1-3)Gal(b1-4)GlcNAc(b1-2)Man
# Outline: as §1
# [10] = molecular target: Gal(a1-3)Gal(b1-4)GlcNAc(b1-2)Man(a1-3)[Gal(a1-3)Gal(b1-4)GlcNAc(b1-2)Man(a1-6)]Man(b1-4)GlcNAc(b1-4)GlcNAc
# Outline: as §1
# [11] = molecular target: Gal(a1-3)Gal(b1-4)GlcNAc(b1-3)GalNAc
# Outline: as §1
# [12] = molecular target: Gal(a1-3)Gal(b1-4)GlcNAc(b1-6)GalNAc
# Outline: as §1
# [13] = molecular target: Gal(a1-3)Gal(b1-4)[Fuc(a1-3)]GlcNAc
# Outline: as §1
# [14] = molecular target: Gal(a1-3)Gal(b1-4)[Fuc(a1-3)]GlcNAc(b1-2)Man(a1-3)[Gal(a1-3)Gal(b1-4)[Fuc(a1-3)]GlcNAc(b1-2)Man(a1-6)]Man(b1-4)GlcNAc(b1-4)GlcNAc
# Outline: as §1
# [15] = molecular target: Gal(a1-3)GalNAc
# Outline: as §1
# [16] = molecular target: Gal(a1-3)[Gal(a1-4)]Gal(b1-4)GlcNAc
# Outline: as §1
# [17] = molecular target: Gal(a1-4)Gal(b1-3)GlcNAc(b1-2)Man(a1-3)[Gal(a1-4)Gal(b1-3)GlcNAc(b1-2)Man(a1-6)]Man(b1-4)GlcNAc(b1-4)GlcNAc
# Outline: as §1
# [18] = molecular target: Gal(a1-4)Gal(b1-4)Glc
# Outline: as §1
# [19] = molecular target: Gal(a1-4)Gal(b1-4)GlcNAc
# Outline: as §1
# [20] = molecular target: Gal(a1-4)Gal(b1-4)GlcNAc(b1-2)Man(a1-3)[Gal(a1-4)Gal(b1-4)GlcNAc(b1-2)Man(a1-6)]Man(b1-4)GlcNAc(b1-4)GlcNAc
# Outline: as §1
# [21] = molecular target: Gal(a1-4)Gal(b1-4)GlcNAc(b1-3)Gal(b1-4)Glc
# Outline: as §1
# [22] = molecular target: Gal(a1-4)GlcNAc
# Outline: as §1
# [23] = molecular target: Gal(a1-6)Glc
# Outline: as §1
# [24] = molecular target: Gal(b1-2)Gal
# Outline: as §1
# [25] = molecular target: Gal(b1-3)Gal
# Outline: as §1
# [26] = molecular target: Gal(b1-3)Gal(b1-4)GlcNAc
# Outline: as §1
# [27] = molecular target: Gal(b1-3)GalNAc
# Outline: as §1
# [28] = molecular target: Gal(b1-3)GalNAc(a1-3)[Fuc(a1-2)]Gal(b1-4)Glc
# Outline: as §1
# [29] = molecular target: Gal(b1-3)GalNAc(a1-3)[Fuc(a1-2)]Gal(b1-4)GlcNAc
# Outline: as §1
# [30] = molecular target: Gal(b1-3)GalNAc(b1-3)Gal
# Outline: as §1
# [31] = molecular target: Gal(b1-3)GalNAc(b1-3)Gal(a1-4)Gal(b1-4)Glc
# Outline: as §1
# [32] = molecular target: Gal(b1-3)GalNAc(b1-4)Gal(b1-4)Glc
# Outline: as §1
# [33] = molecular target: Gal(b1-3)GalNAc(b1-4)[Neu5Ac(a2-3)]Gal(b1-4)Glc
# Outline: as §1
# [34] = molecular target: Gal(b1-3)GlcNAc
# Outline: as §1
# [35] = molecular target: Gal(b1-3)GlcNAc(a1-3)Gal(b1-4)GlcNAc
# Outline: as §1
# [36] = molecular target: Gal(b1-3)GlcNAc(a1-6)Gal(b1-4)GlcNAc
# Outline: as §1
# [37] = molecular target: Gal(b1-3)GlcNAc(b1-2)Man
# Outline: as §1
# [38] = molecular target: Gal(b1-3)GlcNAc(b1-2)Man(a1-3)[Gal(b1-3)GlcNAc(b1-2)Man(a1-6)]Man(b1-4)GlcNAc(b1-4)GlcNAc
# Outline: as §1
binder,measurement,setting,value
B1,glycan array binding signal (z-score),[1],3.45
same,glycan array binding signal (z-score),[2],-0.609
same,glycan array binding signal (z-score),[3],0.085
same,glycan array binding signal (z-score),[4],-1.23
same,glycan array binding signal (z-score),[5],0.439
same,glycan array binding signal (z-score),[6],0.389
same,glycan array binding signal (z-score),[7],0.535
same,glycan array binding signal (z-score),[8],0.196
same,glycan array binding signal (z-score),[9],-0.165
same,glycan array binding signal (z-score),[10],0.844
same,glycan array binding signal (z-score),[11],-0.954
same,glycan array binding signal (z-score),[12],1.19
same,glycan array binding signal (z-score),[13],-0.542
same,glycan array binding signal (z-score),[14],-0.565
same,glycan array binding signal (z-score),[15],0.155
same,glycan array binding signal (z-score),[16],0.986
same,glycan array binding signal (z-score),[17],0.474
same,glycan array binding signal (z-score),[18],-0.987
same,glycan array binding signal (z-score),[19],-0.469
same,glycan array binding signal (z-score),[20],-0.528
same,glycan array binding signal (z-score),[21],0.021
same,glycan array binding signal (z-score),[22],0.337
same,glycan array binding signal (z-score),[23],-0.132
same,glycan array binding signal (z-score),[24],0.592
same,glycan array binding signal (z-score),[25],0.605
same,glycan array binding signal (z-score),[26],-0.685
same,glycan array binding signal (z-score),[27],-0.221
same,glycan array binding signal (z-score),[28],0.267
same,glycan array binding signal (z-score),[29],-0.105
same,glycan array binding signal (z-score),[30],-0.335
same,glycan array binding signal (z-score),[31],-0.504
same,glycan array binding signal (z-score),[32],-0.718
same,glycan array binding signal (z-score),[33],-0.704
same,glycan array binding signal (z-score),[34],-0.34
same,glycan array binding signal (z-score),[35],-0.534
same,glycan array binding signal (z-score),[36],-0.715
same,glycan array binding signal (z-score),[37],-0.26
same,glycan array binding signal (z-score),[38],-0.11

# A portion from the list above:
binder,measurement,setting,value
B1,glycan array binding signal (z-score),[28],0.267
same,glycan array binding signal (z-score),[29],-0.105
same,glycan array binding signal (z-score),[30],-0.335
